From article PMC7618786
Results are given in words; binding and its absence hold for the method and conditions named. In cells and extracts the contact can be indirect. Some binding calls cover weakened binding; strength is not graded here. Where a sequence is shown, tags or fusion partners need not be part of it.

B1: SEC11A, catalytic subunit of the signal peptidase complex (SEC11A-Myc-FLAG) (enzyme, UniProt P67812 1-179)
chain: MLSLDFLDDVRRMNKRQLYYQVLNFGMIVSSALMIWKGLMVITGSESPIVVVLSGSMEPAFHRGDLLFLTNRVEDPIRVGEIVVFRIEGREIPIVHRVLKIHEKQNGHIKFLTKGDNNAVDDRGLYKQGQHWLEKKDVVGRARGFVPYIGIVTILMNDYPKFKYAVLFLLGLFVLVHRE

What was measured:
[1] = molecular target: T1, HA-tagged iR2-1-374, nuclear N-terminal fragment of mouse iRhom2 (tetracycline inducible) (mouse) (UniProt Q80WQ6); test: co-IP; HEK293T stably expressing tetracycline-inducible HA-tagged iR2-1-374; IP: HA; immunoblot for endogenous nuclear proteins
T1 sequence: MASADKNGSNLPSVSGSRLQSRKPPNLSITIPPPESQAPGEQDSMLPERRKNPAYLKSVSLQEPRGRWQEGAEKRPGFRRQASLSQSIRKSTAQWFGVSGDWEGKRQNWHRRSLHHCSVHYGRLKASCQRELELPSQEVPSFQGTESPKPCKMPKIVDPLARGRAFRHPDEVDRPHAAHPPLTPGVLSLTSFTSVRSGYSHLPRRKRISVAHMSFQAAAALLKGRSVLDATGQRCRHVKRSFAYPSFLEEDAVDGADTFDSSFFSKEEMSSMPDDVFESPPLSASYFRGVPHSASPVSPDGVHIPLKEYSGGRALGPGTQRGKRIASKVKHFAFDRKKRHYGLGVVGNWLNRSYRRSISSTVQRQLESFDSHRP

[2] = molecular target: T2, wild-type mouse iRhom2 with C-terminal HA tag (pEGFP-N1-iR2-HA-WT) (mouse) (UniProt Q80WQ6); test: co-IP; HEK293T transfected with HA-tagged iRhom2 constructs and SEC11A, 36-48 h; Triton X-100 lysate; IP: HA with anti-HA magnetic beads, 4°C overnight; washes with 500 mM NaCl; immunoblot
T2 sequence: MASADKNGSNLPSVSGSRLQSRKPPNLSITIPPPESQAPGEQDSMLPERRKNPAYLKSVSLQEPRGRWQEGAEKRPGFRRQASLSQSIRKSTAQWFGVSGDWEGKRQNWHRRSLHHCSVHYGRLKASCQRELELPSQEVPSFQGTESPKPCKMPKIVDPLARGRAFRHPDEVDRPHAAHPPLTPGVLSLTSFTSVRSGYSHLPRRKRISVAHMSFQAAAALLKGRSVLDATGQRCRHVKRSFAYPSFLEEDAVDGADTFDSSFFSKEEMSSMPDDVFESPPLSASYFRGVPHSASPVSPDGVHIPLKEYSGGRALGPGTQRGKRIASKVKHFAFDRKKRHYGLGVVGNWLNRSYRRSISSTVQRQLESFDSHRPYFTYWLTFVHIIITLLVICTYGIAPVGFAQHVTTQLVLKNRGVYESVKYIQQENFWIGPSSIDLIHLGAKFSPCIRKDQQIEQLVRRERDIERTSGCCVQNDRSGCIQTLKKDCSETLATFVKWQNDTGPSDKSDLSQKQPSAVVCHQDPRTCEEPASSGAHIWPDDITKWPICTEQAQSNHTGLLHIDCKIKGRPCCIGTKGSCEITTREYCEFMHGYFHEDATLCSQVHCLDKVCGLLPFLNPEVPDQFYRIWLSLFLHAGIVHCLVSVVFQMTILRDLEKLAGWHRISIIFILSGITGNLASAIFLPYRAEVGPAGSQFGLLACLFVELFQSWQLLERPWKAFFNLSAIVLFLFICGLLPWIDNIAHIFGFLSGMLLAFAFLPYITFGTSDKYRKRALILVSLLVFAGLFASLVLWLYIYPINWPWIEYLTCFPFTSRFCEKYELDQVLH

Molecule | binding [1] | binding [2]
C-terminal binding protein 2 (CtBP2) (from UniProt P56545 1-445) | binds | 
B1 |  | binds
